# Results from PubChem BioAssay AID504444 (National Center for Advancing Translational Sciences (NCATS), 2011).
# Screen size: about 360,000 compounds; about 7,500 (2.1%) were called active. Inconclusive results, whose numbers are uncertain, are shown with a selection of clear calls. The call rests on the fitted dose curve; in most records, active means well fitted inhibition curve with a large enough effect; inconclusive means small, poorly fitted or top-dose-only effect, or effect the other way; inactive means flat fitted curve, though single readings scatter. Potencies of inconclusive entries are doubtful fits and often do not repeat.
# Experiment: Nrf2 qHTS screen for inhibitors; further: nearly all actives have a fitted effect of over 60% in size
# Settings: A549 ARE-Fluc reporter, luciferase luminescence, 18-24 h; activity change, negative = inhibition: at 46 µM (top of the series)
# Method in brief: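 Nrf2 activity is the BugLite luminescence, read 15 min after reagent at room temperature, following CellTiter-Fluor cytotoxicity readout (30 min, 37C). Compound titrations were applied for 18-24 h to 5000 A549 ARE_Fluc cells/well in 5% FBS OPTI-MEM.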
# On the % scale 0 is the no-effect control and ±100 the full control effect; potency means the concentration at half of the fitted maximal effect.
Structure (SMILES),Potency,"activity change, negative = inhibition"
Nc1nnc(CC2=CCCCC2)s1,"inconclusive: 0.326 µM [falling, full curve, poor fit]",
COc1ccc(NC(=O)CN2C(=O)NC3(CCCC3)C2=O)cc1,"inconclusive: 0.164 µM [falling, single point]",
COc1cc(OC)c2c(-c3cccc(-c4ccc(O)cc4)c3)cc(=O)oc2c1,"inconclusive: 29.1 µM [falling, single point]",
Cc1ccc(NC(=O)CC2Nc3ccccc3NC2=O)cc1Cl (stereo not drawn),"inconclusive: 18.4 µM [falling, single point]",
COc1cccc(-c2cc(C(F)(F)F)n3nc(C(=O)N4CCCCC4c4cccnc4)cc3n2)c1 (stereo not drawn),"inconclusive: 29.1 µM [falling, single point]",
Cc1c(-c2nc3ccccc3[nH]2)cnn1C,,inactive: 2.56%
Cc1ccc(Cl)cc1NC(=O)c1cccc(OC(F)F)c1,,inactive: -17.1%
Cn1nc(OCc2ccccc2)ccc1=O,"inconclusive: 0.82 µM [falling, partial curve, poor fit]",
N/C(=N\OC(=O)/C=C/c1ccc(Br)cc1)c1ccccn1,"inconclusive: 0.731 µM [activator, full curve]",
CCCN(CCC)c1cc(C)nc2nc(-c3ccc(Cl)cc3)nn12,,inactive: 13.2%
CC(=NNC(=O)c1ccncc1)c1ccc2ccccc2c1O,active: 2.59 µM,
Cc1ccc(C(=O)NCC(=O)OCC(=O)c2ccc3ccccc3c2)cc1,,inactive: 4.73%
Cc1cccn2c(=O)c(C=O)c(N3CCCCC3)nc12,"inconclusive: 16.4 µM [falling, single point]",
N#C/C(=C\c1cn[nH]c1-c1ccc(Cl)cc1)C(=O)NCc1ccccc1,"inconclusive: 29.1 µM [falling, single point]",
O=C(/C=C/NNC(=O)c1ccccc1)c1ccc(Br)cc1,"inconclusive: 29.1 µM [falling, single point]",
COC(=O)C(C(=O)OC)c1ccc(NC(=O)c2cccc(Cl)c2)cc1,"inconclusive: 1.3 µM [activator, full curve, poor fit]",
O=C(O)c1cc(-c2ccc(Br)s2)nc2ccccc12,"inconclusive: 32.6 µM [activator, single point]",
COc1ccc(/C=C2\CCc3ccccc3C2=O)cc1Cn1nc(C)cc1C,"inconclusive: 18.4 µM [falling, single point]",
Cc1cccc(OCC(=O)Nc2nccs2)c1C,"inconclusive: 1.16 µM [activator, full curve]",
CC1=CC(=O)N(c2ccc(C)cc2)C1c1ccc(Cl)cc1 (stereo not drawn),,inactive: 6.88%
CS(=O)(=O)N(CCc1ccccc1)CC(=O)N1CCCCC1,"inconclusive: 4.61 µM [activator, full curve, poor fit]",
C/[N+]([O-])=C\c1ccc([N+](=O)[O-])o1,"inconclusive: 0.92 µM [falling, full curve, poor fit]",
COC(=O)c1[nH]c2ccc(Cl)cc2c1NC(=O)C1CC1,,inactive: -2.32%

# Grouped by structure: those above containing a carbonyl joined to an NH by a bond outside any ring
Structure (SMILES),Potency,"activity change, negative = inhibition"
COc1ccc(NC(=O)CN2C(=O)NC3(CCCC3)C2=O)cc1,"inconclusive: 0.164 µM [falling, single point]",
Cc1ccc(NC(=O)CC2Nc3ccccc3NC2=O)cc1Cl (stereo not drawn),"inconclusive: 18.4 µM [falling, single point]",
Cc1ccc(Cl)cc1NC(=O)c1cccc(OC(F)F)c1,,inactive: -17.1%
CC(=NNC(=O)c1ccncc1)c1ccc2ccccc2c1O,active: 2.59 µM,
Cc1ccc(C(=O)NCC(=O)OCC(=O)c2ccc3ccccc3c2)cc1,,inactive: 4.73%
N#C/C(=C\c1cn[nH]c1-c1ccc(Cl)cc1)C(=O)NCc1ccccc1,"inconclusive: 29.1 µM [falling, single point]",
O=C(/C=C/NNC(=O)c1ccccc1)c1ccc(Br)cc1,"inconclusive: 29.1 µM [falling, single point]",
COC(=O)C(C(=O)OC)c1ccc(NC(=O)c2cccc(Cl)c2)cc1,"inconclusive: 1.3 µM [activator, full curve, poor fit]",
Cc1cccc(OCC(=O)Nc2nccs2)c1C,"inconclusive: 1.16 µM [activator, full curve]",
COC(=O)c1[nH]c2ccc(Cl)cc2c1NC(=O)C1CC1,,inactive: -2.32%

# Fetched one by one from the list above:
Structure (SMILES),Potency,"activity change, negative = inhibition"
COc1ccc(NC(=O)CN2C(=O)NC3(CCCC3)C2=O)cc1,"inconclusive: 0.164 µM [falling, single point]",
CC1=CC(=O)N(c2ccc(C)cc2)C1c1ccc(Cl)cc1 (stereo not drawn),,inactive: 6.88%

# Further results

Structure (SMILES),Potency,"activity change, negative = inhibition"
Cc1ccc(Nc2nc(CSc3nnc(-c4ccccc4)n3C)cs2)cc1,"inconclusive: 9.2 µM [activator, partial curve, poor fit]",
CC(C)(C)OC(=O)N(CCc1ccccc1)Cc1cccc(OCc2cccc(NC(=O)C3CC3)c2)c1,"inconclusive: 20.6 µM [falling, single point]",
CN(C)c1nc2c(c(=O)[nH]c(=O)n2C)n1Cc1ccccc1Br,,inactive: -4.94%
NC(=O)C1CCN(C(=O)COc2ccc3ccccc3c2)CC1,"inconclusive: 23.1 µM [activator, single point]",
CC(C)(C)C1CCC(OCC(O)CN2CCN(Cc3ccccc3)CC2)CC1 (stereo not drawn),,inactive: 8.11%
COc1ccc(NC(=O)c2c(Cl)nc3ccccn23)cc1,"inconclusive: 29.1 µM [activator, single point]",
O=C(NC(=O)c1ccccc1)Nc1ccc(Cl)cn1,"inconclusive: 1.16 µM [activator, partial curve, poor fit]",
O=C(Nc1ccc(N2CCOCC2)nc1)c1ccc(C(F)(F)F)cc1,"inconclusive: 8.2 µM [falling, partial curve, poor fit]",
CCN1C(=O)[C@H]2[C@@H](c3ccc(-c4ccc(C(C)=O)cc4)c(OC)c3)N[C@@](Cc3ccccc3)(C(=O)OC)[C@H]2C1=O,"inconclusive: 16.4 µM [falling, partial curve]",
CSc1ccc(C(=O)C2CCCN(S(=O)(=O)c3c(C)noc3C)C2)cc1 (stereo not drawn),active: 13 µM,
NC(=O)CN1C(=O)/C(=c2\sc3nc(=O)c(Cc4ccccc4)nn3c2=O)c2ccccc21,,inactive: -13.3%
O=C(O)C1CCCN1C(=O)Oc1ccccc1 (stereo not drawn),"inconclusive: 0.58 µM [falling, partial curve, poor fit]",
COc1ccc(N(C(=O)CCl)C(C(=O)NCCc2ccccc2)c2cccs2)cc1 (stereo not drawn),,inactive: -26.1%
CC(CNC(=O)Cn1c(-c2cccs2)cc2cc(Cl)ccc21)c1ccccc1 (stereo not drawn),,inactive: -29.5%
COC(=O)C1=C(C)N(Cc2ccccc2)C(=NCCc2ccccn2)N[C@H]1c1cccc(C(F)(F)F)c1,,inactive: -7.59%
CC(C)(Oc1ccc(Cl)cc1)C(=O)Nc1ccncc1,"inconclusive: 18.4 µM [falling, partial curve]",
Cc1ccc(CN2CCN(CC(=O)NCCCN3CCN(c4ccc(F)cc4)CC3)C2=O)cc1,"inconclusive: 13 µM [falling, partial curve]",
CC(C)n1ncc2c(C(=O)N3CCN(c4ccc(F)cc4)CC3)cc(-c3ccccc3)nc21,"inconclusive: 20.6 µM [falling, partial curve, poor fit]",
Cc1ccccc1S(=O)(=O)Cc1ccc(C(=O)NCc2cccs2)o1,"inconclusive: 1.03 µM [falling, partial curve, poor fit]",
CCN1CCc2nc3ccccc3c(C(=O)Nc3ccc(NC(C)=O)cc3)c2C1,,inactive: 13.3%
CC(NC(=O)C1CCN(C(=O)Nc2ccccc2)CC1)c1ccc(Cl)cc1 (stereo not drawn),"inconclusive: 20.6 µM [falling, single point]",
COc1cccc(NC(=O)c2oc3ccccc3c2NC(=O)c2ccc(OC(C)C)cc2)c1,,inactive: 26.3%
CC1(c2ccc(Cl)cc2)NC(=O)N(CC(=O)NCCC2=CCCCC2)C1=O (stereo not drawn),"inconclusive: 29.1 µM [falling, single point]",

Structure (SMILES),Potency,"activity change, negative = inhibition"
Cc1c(C(=O)N(C)C(C)c2ccncn2)oc2c(F)cccc12 (stereo not drawn),"inconclusive: 20.6 µM [activator, single point]",
Cn1cccc1C(=O)N/N=C/c1c(Cl)cccc1Cl,"inconclusive: 2.91 µM [activator, full curve]",
O=C(NCc1ccc2c(c1)OCO2)C(=O)NCC1OCCN1S(=O)(=O)c1ccc(Cl)cc1 (stereo not drawn),active: 25.9 µM,
CCCN(CCC)CCNC(=O)c1cc2c(=O)n(CC)c3ccccc3c2s1,"inconclusive: 3.66 µM [activator, partial curve, poor fit]",
CCOc1ccc(CCNC(=O)c2cc3c(C)nccc3[nH]c2=O)cc1OCC,"inconclusive: 23.1 µM [falling, partial curve, poor fit]",
CCCN1CCC(=O)N(CCSc2ccc(C)cc2)CC1,"inconclusive: 7.31 µM [activator, partial curve]",
COc1ccc(CC(NC(C)=O)C(=O)NC2CCN(c3nnnn3-c3ccccc3)CC2)cc1 (stereo not drawn),"inconclusive: 4.61 µM [activator, full curve, poor fit]",
COc1ccc2c(CNCCc3ccco3)c(C(=O)O)n(Cc3ccc(F)cc3)c2c1,,inactive: 29.5%
COc1ccc(-c2cc(C(F)F)n3ncc(C(=O)N4CCc5ccccc54)c3n2)cc1,"inconclusive: 7.31 µM [falling, single point]",
O=C(CSc1ncnc2c(-c3ccc(Cl)cc3)nsc12)c1ccccc1,"inconclusive: 6.51 µM [activator, full curve, poor fit]",
COc1cc(/C=N/NC(=O)c2c(C)nnn2-c2nonc2N)ccc1O,,inactive: -1.74%
Cc1ccc2c(CC(=O)Nc3c(C(=O)c4ccc(F)cc4)oc4ccccc34)coc2c1C,"inconclusive: 23.1 µM [falling, single point]",
CC(C)c1ccc(NC(=O)C(Cc2ccccc2)n2cccc2)cc1 (stereo not drawn),"inconclusive: 20.6 µM [falling, single point]",
Cc1cc2sc3ccc(C#CC4(O)CCCCC4)cc3c(=O)c2cc1C,active: 0.206 µM,
Cc1ccc(C)c(S(=O)(=O)c2cn(Cc3ccccc3)c3cc(N4CCCC4)c(F)cc3c2=O)c1,"inconclusive: 10.3 µM [falling, single point]",
CCOc1ccc(NC(=O)Cn2c(=O)n(CC(=O)NCCc3ccccc3)c(=O)c3sccc32)cc1,"inconclusive: 18.4 µM [falling, single point]",
COc1cc(C)c(CN2CCN(C(C)C(=O)NC(C)c3ccccc3)CC2)cc1OC (stereo not drawn),"inconclusive: 1.16 µM [falling, partial curve, poor fit]",
Cc1ccc(-n2ccn(CC(=O)c3ccc(F)cc3)c(=O)c2=O)cc1C,,inactive: 5.74%
Nc1c(S(=O)(=O)c2cccs2)c2nc3ccccc3nc2n1Cc1ccccc1,"inconclusive: 14.6 µM [falling, partial curve, poor fit]",
Cc1ccc(-c2cc(C(=O)N3CC(C)OC(C)C3)c3ccccc3n2)o1 (stereo not drawn),"inconclusive: 16.4 µM [activator, partial curve]",
COc1cc(CCC(=O)Nc2nnc(C)s2)cc(OC)c1OC,"inconclusive: 13 µM [activator, partial curve]",
O=C(Nc1ccccc1Br)c1cc(=O)c2ccccc2o1,"inconclusive: 13 µM [activator, partial curve]",
